PubChem BioAssay AID504786 – Drosophila RNAi Screening Center, 2011
Assay: 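Knock-downs reducing HIF reporter induction by the iron chelator DFO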 (primary screen). Cells: Drosophila S2 cells with a stable HIF luciferase reporter. Knock-down reagent: long dsRNA against Drosophila genes, about 0.2 µg dsRNA per well of a 384-well plate. Duration: three days of knock-down, then 20 h of DFO before reading. Conditions: desferrioxamine (DFO) at 100 µM, an iron chelator that mimics hypoxia, for 20 h. Measured: 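HIF reporter luminescence in cells given 100 µM DFO for 20 h, using the mouse ldh-a hypoxia-response element, scored as per-plate z-scores; higher means greater loss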. Scale: z-score: higher = stronger loss of HIF reporter signal.
The deposit covers about 21,000 reagents; this is an unselected part of those with a known target gene and a result. 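Primary screen; positive scores mean lost reporter signal, so the sign may be inverted from the usual convention.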 Reagent sequences are not shown.

Chd64 (GeneID 38490) [DRSC08649] showed z-score, replicate 1 = -0.2; z-score, replicate 2 = -0.1. With knock-down of CG30375 (GeneID 246575) [DRSC06834], the screen gave z-score, replicate 1 = -0.3; z-score, replicate 2 = -0.3. With knock-down of CG13280 (GeneID 35015) [DRSC02253], the record shows z-score, replicate 1 = -0.3; z-score, replicate 2 = 0.5. Against CG3345 (GeneID 33192) [DRSC00596] the deposit lists z-score, replicate 1 = -0.2; z-score, replicate 2 = 0. Ugt307A1 (GeneID 33993) [DRSC02138] showed z-score, replicate 1 = -0.1; z-score, replicate 2 = -0.3. Against CG8925 (GeneID 41963) [DRSC16455], the values are z-score, replicate 1 = -0.1; z-score, replicate 2 = -0.6.

With knock-down of CG8925 (GeneID 41963) [DRSC16456] the results were z-score, replicate 1 = -0.1; z-score, replicate 2 = -0.1. After knock-down of CG8925 (GeneID 41963) [DRSC16457], the screen gave z-score, replicate 1 = -0.4; z-score, replicate 2 = -0.6. CG7882 (GeneID 35520) [DRSC04899] showed z-score, replicate 1 = -0.1; z-score, replicate 2 = -0.2. Against CG12259 (GeneID 43347) [DRSC14486], the values are z-score, replicate 1 = -0.5; z-score, replicate 2 = -0.6. Knock-down of CG12010 (GeneID 38421) [DRSC08218] resulted in: z-score, replicate 1 = -0.3; z-score, replicate 2 = -0.7. For Tgt (GeneID 33307) [DRSC00672], the entry reads z-score, replicate 1 = -0.2; z-score, replicate 2 = -0.5.

Mrp4 (GeneID 41387) [DRSC14931] scored z-score, replicate 1 = -0.2; z-score, replicate 2 = 0.3. For alpha-Man-Ib (GeneID 43436) [DRSC14418], the values are z-score, replicate 1 = -0.1; z-score, replicate 2 = 0.6. Against Nmd3 (GeneID 31195) [DRSC18687] the deposit lists z-score, replicate 1 = -0.4; z-score, replicate 2 = 0.4. For U2af38 (GeneID 33201) [DRSC00796], the entry reads z-score, replicate 1 = 2.9; z-score, replicate 2 = 3.2.

Targets above whose target name starts with U or u:
Ugt307A1 (GeneID 33993) [DRSC02138]: z-score, replicate 1 = -0.1; z-score, replicate 2 = -0.3
U2af38 (GeneID 33201) [DRSC00796]: z-score, replicate 1 = 2.9; z-score, replicate 2 = 3.2
